Experimental data: the supplement of paper PMC3334620
Over roughly 33,000 sequences, “E-score (-0.5 to 0.5)” has its median near -8e-05; the highest 2% begin near 0.23. This is one part of the list.

These sequences were tested against T1, Nrg2 (UniProt P38082) (assay: PBM E-score (8-mer binding enrichment) (E-score (-0.5 to 0.5)); higher = stronger / more preferred TF binding). Settings: protein concentration: 100 nM; construct: GST-full length.
T1 sequence: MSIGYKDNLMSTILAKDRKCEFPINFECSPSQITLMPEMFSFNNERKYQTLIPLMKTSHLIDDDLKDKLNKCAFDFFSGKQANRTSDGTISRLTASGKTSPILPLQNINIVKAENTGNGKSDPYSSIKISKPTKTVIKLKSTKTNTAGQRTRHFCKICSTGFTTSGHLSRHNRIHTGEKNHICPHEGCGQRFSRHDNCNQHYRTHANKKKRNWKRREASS
Outline: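 Each ungapped eight-base word and its reverse complement, pooled, received an E-score from the Universal PBM Analysis Suite. Underlying scans, normalised with masliner, recorded fluorescent anti-GST bound to GST-tagged yeast transcription factors. These were applied at about 100-200 nM to universal all-10-mer Agilent arrays double-stranded by primer extension.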

| Sequence | PBM E-score |
| --- | --- |
| AGGGAAAT | 0.107 |
| CGGCAACC | -0.182 |
| CAGTCTAC | -0.272 |
| ACTACTTC | 0.0422 |
| TGCTCTAA | -0.107 |
| GATATATA | 0.247 |
| CGCTATGC | -0.00446 |
| AGGCGCAG | -0.172 |
| GTGGTGGA | -0.223 |
| CCCACAGA | -0.125 |
| CGGATAGA | 0.111 |
| ATCAGATA | 0.0611 |
| AACCTCGT | 0.0968 |
| ATCTTAGG | -0.0648 |
| AGACTAGG | -0.136 |
| GGTACCTA | -0.0206 |
| CGATTAGA | -0.0091 |
| ACCCCCCA | -0.406 |
| CTGTACTC | 0.0889 |
| CGACTGAA | -0.149 |
| ACAATGGA | 0.159 |
| ACGCTTCC | -0.0968 |

| Sequence | PBM E-score |
| --- | --- |
| CGCTCCGA | 0.163 |
| GGTGGCCA | -0.176 |
| GAAAGATA | 0.118 |
| AGTGGGCG | 0.0689 |
| CGTACTAA | 0.224 |
| AATCCGAC | 0.0893 |
| CAAGCGTG | 0.127 |
| TCTATACA | -0.0584 |
| GACTAAAC | 0.00156 |
| CCGTCCCA | -0.0451 |
| ATGCTCGA | -0.0173 |
| ATGATAAT | 0.128 |
| GGCCTGGA | -0.225 |
| CACAAGTC | -0.162 |
| TATAGCGA | -0.117 |
| GGGCCATA | -0.00217 |
| CTTCGCAA | 0.0484 |
| CACCAGCC | -0.121 |
| CTTTGACA | -0.129 |
| ACGGATAC | 0.212 |
| ACCGGTAG | -0.208 |
| TCTCTTAA | 0.123 |

Pulled one by one from the entries so far:

| Sequence | PBM E-score |
| --- | --- |
| ACGGATAC | 0.212 |
| ACTACTTC | 0.0422 |
| CGCTCCGA | 0.163 |
| CGTACTAA | 0.224 |

The results go on.

| Sequence | PBM E-score |
| --- | --- |
| AAACATGA | -0.0382 |
| AAAGTGGC | -0.0116 |
| GATGGGTA | 0.0417 |
| AGTGTCCC | 0.0789 |
| AATAATCG | 0.139 |
| ATCAGGTC | 0.0284 |
| GCTCATAA | 0.0365 |
| ATATCTAC | 0.0734 |
| GCCTGTAA | -0.225 |
| GCGACTAA | 0.166 |
| CGGTTGTC | 0.138 |
| ATCTTCCA | -0.0745 |
| AGTTATAG | 0.0148 |
| ATTACCTA | 0.0485 |
| AGCTCGAC | -0.0667 |
| CCCAGGCC | -0.141 |
| ATATAGCC | 0.0747 |
| CGGGTAGC | -0.163 |
| CTTGGCAC | -0.0589 |
| GCCAGAAC | -0.0622 |
| ACGTTTGA | 0.136 |
| CTTGGCCA | -0.0664 |

| Sequence | PBM E-score |
| --- | --- |
| AGGAAGAA | -0.0201 |
| AGCTTTAC | -0.26 |
| CGTTGACA | 0.00462 |
| ACGGGGAC | 0.0269 |
| GAAAGAAC | 0.0456 |
| CAGAGACG | 0.0459 |
| AGTGAGAG | -0.116 |
| GCCCAGCA | -0.0115 |
| ACCGCGGA | 0.187 |
| ACTACCAA | -0.066 |
| AGATAACC | -0.128 |
| ATTAGACC | -0.3 |
| CCGCAAAA | -0.0629 |
| CCGATTCA | -0.0659 |
| CGGGCCCA | -0.128 |
| AGGACCCC | 0.183 |
| CAACGACC | -0.0624 |
| GTGGGAAA | -0.0347 |
| CTCACCCA | 0.0228 |
| CCGGGTAC | -0.0499 |
